{
  "source": "the supplement of paper PMC12819154",
  "about": "“High-throughput peptide-centric local stability assay extends protein–ligand identification to membrane proteins, tissues and bacteria” (Nature Structural & Molecular Biology, 2025)",
  "note": "The entries are a selection whose mix differs from that of the whole data set. Small differences around the control level are noise.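 Also: lysate desalted by size exclusion to strip endogenous ATP, peptide intensities built from DIA-NN precursor signals, and peptides missing any value discarded before comparison.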",
  "data": [
    {"target": "UniProt P0AAR3", "test": "log2 fold change of tryptic peptide abundance, ligand vs vehicle (limited proteolysis) (log2 ratio); higher = more trypsin-susceptible (destabilized)", "settings": "peptide sequence: RGLDIELAAGDLAK; peptide start residue: 133; ligand concentration: 5 mM; sample: E. coli desalted lysate; replicate design: treated before aliquoting", "experimental": "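HT-PELSA: desalted E. coli K-12 BW25113 lysate (with 12 mM MgCl2) incubated with 5 mM ATP (pH 7) or water for 30 min at 25 C, then a 4 min trypsin pulse at 22 C. Peptides were quantified by DIA-MS (4 replicates). Value is the peptide log2 fold change (treated/control); negative = stabilized. Scale: negative = ligand-stabilized region.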", "values": [
      {"smiles": "Nc1ncnc2c1ncn2[C@@H]1O[C@H](COP(=O)(O)OP(=O)(O)OP(=O)(O)O)[C@@H](O)[C@H]1O", "note": "[adenosine 5'-triphosphate]", "log2 fold change": -0.315}
    ]}
  ]
}
